The other results are listed elsewhere or left out.
What was measured:
Test in all cases: glycan array binding signal (z-score within array); higher = stronger binding
Conditions in all cases: glycan notation: IUPAC condensed, linker removed
[1] = molecular target: GlcNAc(b1-3)Gal(b1-4)GlcNAc(b1-3)Gal(b1-4)GlcNAc(b1-3)GalNAc
In short: (§1)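 The Consortium for Functional Glycomics database supplied 3228 glycan arrays, of which those lacking an available protein sequence were dropped. The binding signal, a within-array Z-score, was averaged across arrays of the same protein sequence and across linkers. Negative scores can be read as non-binding.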

[2] = molecular target: GlcNAc(b1-3)Gal(b1-4)GlcNAc(b1-3)GalNAc
In short: as §1

[3] = molecular target: GlcNAc(b1-3)Gal(b1-4)GlcNAc(b1-3)[GlcNAc(b1-3)Gal(b1-4)GlcNAc(b1-3)]GalNAc
In short: as §1

[4] = molecular target: GlcNAc(b1-3)Gal(b1-4)GlcNAc(b1-6)[Gal(b1-3)]GalNAc
In short: as §1

[5] = molecular target: GlcNAc(b1-3)Gal(b1-4)GlcNAc(b1-6)[GlcNAc(b1-3)Gal(b1-3)]GalNAc
In short: as §1

[6] = molecular target: GlcNAc(b1-3)Gal(b1-4)GlcNAc(b1-6)[GlcNAc(b1-3)]Gal(b1-4)GlcNAc
In short: as §1

GlcNAc(b1-3)GalNAc = molecular target: GlcNAc(b1-3)GalNAc
In short: as §1

GlcNAc(b1-3)Man = molecular target: GlcNAc(b1-3)Man
In short: as §1

[7] = molecular target: GlcNAc(b1-3)[GlcNAc(b1-4)][GlcNAc(b1-6)]GlcNAc
In short: as §1

[8] = molecular target: GlcNAc(b1-3)[GlcNAc(b1-6)]Gal(b1-4)GlcNAc
In short: as §1

[9] = molecular target: GlcNAc(b1-3)[GlcNAc(b1-6)]GalNAc
In short: as §1

[10] = molecular target: GlcNAc(b1-4)Gal(b1-4)GlcNAc
In short: as §1

GlcNAc(b1-4)GlcNAc = molecular target: GlcNAc(b1-4)GlcNAc
In short: as §1

[11] = molecular target: GlcNAc(b1-4)GlcNAc(b1-4)GlcNAc
In short: as §1

[12] = molecular target: GlcNAc(b1-4)GlcNAc(b1-4)GlcNAc(b1-4)GlcNAc(b1-4)GlcNAc
In short: as §1

[13] = molecular target: GlcNAc(b1-4)GlcNAc(b1-4)GlcNAc(b1-4)GlcNAc(b1-4)GlcNAc(b1-4)GlcNAc
In short: as §1

[14] = molecular target: GlcNAc(b1-4)[GlcNAc(b1-6)]GalNAc
In short: as §1

[15] = molecular target: GlcNAc(b1-6)Gal(b1-4)GlcNAc
In short: as §1

GlcNAc(b1-6)GalNAc = molecular target: GlcNAc(b1-6)GalNAc
In short: as §1

[16] = molecular target: GlcNAc6S(b1-3)Gal(b1-4)GlcNAc
In short: as §1

Kdn(a2-3)Gal(b1-3)GalNAc = molecular target: Kdn(a2-3)Gal(b1-3)GalNAc
In short: as §1

Kdn(a2-3)Gal(b1-3)GlcNAc = molecular target: Kdn(a2-3)Gal(b1-3)GlcNAc
In short: as §1

Kdn(a2-3)Gal(b1-4)Glc = molecular target: Kdn(a2-3)Gal(b1-4)Glc
In short: as §1

Kdn(a2-3)Gal(b1-4)GlcNAc = molecular target: Kdn(a2-3)Gal(b1-4)GlcNAc
In short: as §1

[17] = molecular target: Kdn(a2-3)Gal(b1-4)[Fuc(a1-3)]GlcNAc
In short: as §1

Kdn(a2-6)Gal(b1-4)GlcNAc = molecular target: Kdn(a2-6)Gal(b1-4)GlcNAc
In short: as §1

[18] = molecular target: Man(a1-2)Man(a1-2)Man(a1-3)Man
In short: as §1

[19] = molecular target: Man(a1-2)Man(a1-2)Man(a1-6)[Man(a1-3)]Man
In short: as §1

Man(a1-2)Man(a1-3)Man = molecular target: Man(a1-2)Man(a1-3)Man
In short: as §1

[20] = molecular target: Man(a1-2)Man(a1-3)[Man(a1-2)Man(a1-6)]Man
In short: as §1

[21] = molecular target: Man(a1-2)Man(a1-3)[Man(a1-2)Man(a1-6)]Man(a1-6)[Man(a1-2)Man(a1-2)Man(a1-3)]Man
In short: as §1

[22] = molecular target: Man(a1-2)Man(a1-3)[Man(a1-2)Man(a1-6)]Man(a1-6)[Man(a1-2)Man(a1-2)Man(a1-3)]Man(b1-4)GlcNAc(b1-4)GlcNAc
In short: as §1

[23] = molecular target: Man(a1-2)Man(a1-3)[Man(a1-6)]Man(a1-6)[Man(a1-2)Man(a1-3)]Man(b1-4)GlcNAc(b1-4)GlcNAc
In short: as §1

[24] = molecular target: Man(a1-2)Man(a1-6)[Man(a1-3)]Man(a1-6)[Man(a1-2)Man(a1-2)Man(a1-3)]Man
In short: as §1

[25] = molecular target: Man(a1-2)Man(a1-6)[Man(a1-3)]Man(a1-6)[Man(a1-2)Man(a1-2)Man(a1-3)]Man(b1-4)GlcNAc(b1-4)GlcNAc
In short: as §1

Man(a1-3)[Man(a1-6)]Man = molecular target: Man(a1-3)[Man(a1-6)]Man
In short: as §1

[26] = molecular target: Man(a1-3)[Man(a1-6)]Man(a1-6)[Man(a1-2)Man(a1-3)]Man(b1-4)GlcNAc(b1-4)GlcNAc
In short: as §1

[27] = molecular target: Man(a1-3)[Man(a1-6)]Man(a1-6)[Man(a1-3)]Man
In short: as §1

[28] = molecular target: Man(a1-3)[Man(a1-6)]Man(a1-6)[Man(a1-3)]Man(b1-4)GlcNAc(b1-4)GlcNAc
In short: as §1

[29] = molecular target: Man(a1-3)[Man(a1-6)]Man(b1-4)GlcNAc(b1-4)GlcNAc
In short: as §1

[30] = molecular target: Man(a1-3)[Man(a1-6)]Man(b1-4)GlcNAc(b1-4)[Fuc(a1-6)]GlcNAc
In short: as §1

Man(a1-6)Man = molecular target: Man(a1-6)Man
In short: as §1

Man(b1-4)GlcNAc = molecular target: Man(b1-4)GlcNAc
In short: as §1

MurNAc(b1-4)GlcNAc = molecular target: MurNAc(b1-4)GlcNAc
In short: as §1

Neu5Ac(a2-3)Gal = molecular target: Neu5Ac(a2-3)Gal
In short: as §1

B1: Pwp7 (Candida glabrata) (protein)
chain: MGSSHHHHHHSSGLVPRGSHMASKNPVDFPNLCQYPNLDGAVAGFDTEIYNADPSILINFSLWPILQFPKEWHKTIGRAITTQTNFKLPASDTTLFGVSIPTQNILIEFRGYFIPPKSGTYTFALYLTDDGSAMFLGNDAAFPCGNITSWSNPTNDQVSVSDYDPKKKTLTVYMVAGVAYPLRIAYYNREKGGSLTASFVDPDGLTHSDWNGYIWTLPSCDNCKYS
[1]
  glycan array binding signal (z-score): 0.128
[2]
  glycan array binding signal (z-score): 2.79
[3]
  glycan array binding signal (z-score): 0.792
[4]
  glycan array binding signal (z-score): 1.47
[5]
  glycan array binding signal (z-score): 1.75
[6]
  glycan array binding signal (z-score): 0.338
GlcNAc(b1-3)GalNAc
  glycan array binding signal (z-score): -0.079
GlcNAc(b1-3)Man
  glycan array binding signal (z-score): -0.272
[7]
  glycan array binding signal (z-score): -1.58
[8]
  glycan array binding signal (z-score): -0.977
[9]
  glycan array binding signal (z-score): -0.667
[10]
  glycan array binding signal (z-score): -1.67
GlcNAc(b1-4)GlcNAc
  glycan array binding signal (z-score): -1.22
[11]
  glycan array binding signal (z-score): -1.2
[12]
  glycan array binding signal (z-score): 0.649
[13]
  glycan array binding signal (z-score): 1.15
[14]
  glycan array binding signal (z-score): -0.599
[15]
  glycan array binding signal (z-score): -0.602
GlcNAc(b1-6)GalNAc
  glycan array binding signal (z-score): -0.569
[16]
  glycan array binding signal (z-score): -0.92
Kdn(a2-3)Gal(b1-3)GalNAc
  glycan array binding signal (z-score): 0.995
Kdn(a2-3)Gal(b1-3)GlcNAc
  glycan array binding signal (z-score): 0.536
Kdn(a2-3)Gal(b1-4)Glc
  glycan array binding signal (z-score): 0.185
Kdn(a2-3)Gal(b1-4)GlcNAc
  glycan array binding signal (z-score): -0.166
[17]
  glycan array binding signal (z-score): -0.239
Kdn(a2-6)Gal(b1-4)GlcNAc
  glycan array binding signal (z-score): -0.857
[18]
  glycan array binding signal (z-score): -0.713
[19]
  glycan array binding signal (z-score): -0.05
Man(a1-2)Man(a1-3)Man
  glycan array binding signal (z-score): -0.678
[20]
  glycan array binding signal (z-score): -0.675
[21]
  glycan array binding signal (z-score): -0.503
[22]
  glycan array binding signal (z-score): 0.024
[23]
  glycan array binding signal (z-score): -0.415
[24]
  glycan array binding signal (z-score): -0.467
[25]
  glycan array binding signal (z-score): -0.429
Man(a1-3)[Man(a1-6)]Man
  glycan array binding signal (z-score): -1.03
[26]
  glycan array binding signal (z-score): -0.076
[27]
  glycan array binding signal (z-score): 2.11
[28]
  glycan array binding signal (z-score): 0.871
[29]
  glycan array binding signal (z-score): -0.347
[30]
  glycan array binding signal (z-score): 0.822
Man(a1-6)Man
  glycan array binding signal (z-score): -1.42
Man(b1-4)GlcNAc
  glycan array binding signal (z-score): -0.826
MurNAc(b1-4)GlcNAc
  glycan array binding signal (z-score): -0.426
Neu5Ac(a2-3)Gal
  glycan array binding signal (z-score): -0.604
